Patent US8481679B2, “Immobilizing an entity in a desired orientation on a support material” (Arizona Board of Regents Acting on behalf of Arizona State …, priority 2007, dated 2013)
Some entries share one result that the patent states for a list of compounds. Some compounds share one range, which may span the group rather than tell each member.

Test system: carbonic anhydrase
Test: Corning Epic binding of dansylamide to carbonic anhydrase immobilized by attachment peptides
Details: carbonic anhydrase immobilized at 1 μM concentration; after 30 and 150 minutes
Procedure: Dansylamide, a known inhibitor of carbonic anhydrase, was applied to a range of concentrations (31 nM to 1 μM) of carbonic anhydrase immobilized in Epic wells by peptides CA4, CA8, CA9, CA10, CA11, and CA12. […] Wavelength shifts on the order of approximately 10 to 20 pm were observed upon application of the dansylamide to carbonic anhydrase immobilized at 1 μM concentration on peptides CA4, CA8, and CA11, confirming that the carbonic anhydrase was immobilized in an orientation that preserved the availability of the binding site (active site) and ability of the enzyme to consistently bind the inhibitor dansylamide, and confirming that the attachment peptides were able to immobilize carbonic anhydrase in the wells of an Epic plate in a manner such that binding of dansylamide to the carbonic anhydrase was readily detectable by the Epic technology.
For nearly all replicates, a shift on the order of 20 pm was observed upon application of the dansylamide.

Row | Substance | additional wavelength shift upon application of dansylamide
1 | CA8: 20-residue candidate attachment peptide for carbonic anhydrase, C-terminal glycine-serine-cysteine; sequence only in FIG. 6A (RHWKWHWWRRHHPHHWFGSC; CA8 (Carbonic Anhydrase Peptide 8)) | 10 to 20 pm
2 | CA11: 20-residue candidate attachment peptide for carbonic anhydrase, C-terminal glycine-serine-cysteine; sequence only in FIG. 6A (IEDTYLRFRHYGWYNNNGSC; CA11 (Carbonic Anhydrase Peptide 11)) | 10 to 20 pm
